Assays:
11C-BUP brain binding = details: 20 mg kg DZP subcutaneously 15 min before 11C-BUP; all studied brain regions
[1] = tested on: diaphragm contraction and workload; test: Diaphragmatic electromyography after diazepam / buprenorphine; assay type: in vivo, Sprague–Dawley rat; details: 30 mg kg BUP intraperitoneally, 20 mg kg DZP subcutaneously

## CN1C(=O)CN=C(c2ccccc2)c2cc(Cl)ccc21 [diazepam]
11C-BUP brain binding
  TACs and 11C-BUP BPND, DZP BUP vs VEH BUP: not different
[1]
  diaphragm contraction (first 60 min AUC): This increase was inhibited in the presence of DZP
